Source: article PMC4915166
These are yes or no findings as the source states them, for the method shown. For some of these results: Binding seen in cells or lysates may run through a third protein. Some binding calls cover weakened binding; strength is not graded here.

Legend:
[1] = target: gp91^phox, the catalytic subunit of NADPH oxidase (Nox2) (mouse (endogenous in mouse microglia)) (UniProt Q61093); test: confocal microscopy of FITC-labelled peptide on cells; FITC-labeled peptide incubated with WT or gp91phox-/- mouse microglia (legend: on ice for 30 min; methods: cells fixed, permeabilised and stained for gp91phox beforehand); only the binder purified
[2] = target: gp91^phox, the catalytic subunit of NADPH oxidase (Nox2) (mouse (endogenous in mouse microglia)) (UniProt Q61093); test: co-IP; Flag-fused synthetic peptide mixed with WT mouse microglial (or mixed glial) lysate in a cold room overnight; goat anti-gp91phox polyclonal antibody or control IgG on protein G magnetic beads, RT 30 min; blots for Flag, gp91phox, tubulin; gp91phox-/- lysate as control; only the binder purified

binding [1]	binding [2]	Substance
no binding		FITC-labeled A19-A30 α-Syn peptide (from UniProt P37840 19-30)
binds		FITC-labeled A29-V40 α-Syn peptide (from UniProt P37840 29-40)
	no binding	Flag-tagged A19-A30 α-Syn control peptide (WT) (from UniProt P37840 19-30)
	binds	Flag-tagged A29-V40 α-Syn peptide (WT) (from UniProt P37840 29-40)
